Values of other authors in patent US20110129540A1, “Polymer of acrylic or methacrylic type comprising alpha-tocopherol grafts” (Flamel Technologies, priority 2009, published 2011).

Which Water-solubility (background statement) does the source give for `CC(=O)O[C@H]1C(=O)[C@@]2(C)[C@H]([C@H](OC(=O)c3ccccc3)[C@]3(O)C[C@H](OC(=O)[C@H](O)[C@@H](NC(=O)c4ccccc4)c4ccccc4)C(C)=C1C3(C)C)[C@]1(OC(C)=O)CO[C@@H]1C[C@@H]2O` [paclitaxel] here?
The Water-solubility was “less than 1 μg/ml”.

And the “Solubility of the paclitaxel in water” value (in water, no polymer)?
The value was “less than 0.25 μg/mL”.
